Results on 10 sequences are retold here after paper PMC6303327.

Chains of the proteins cited; added tags and fusions are not shown. A line that says so, or that is headed by a name, gives the form on record, which may keep a tag or linker.
ScRPA (Rfa1-Rfa2-Rfa3 heterotrimer, wild type) (Saccharomyces cerevisiae), one chain, as listed by the source, chain 1 of 3: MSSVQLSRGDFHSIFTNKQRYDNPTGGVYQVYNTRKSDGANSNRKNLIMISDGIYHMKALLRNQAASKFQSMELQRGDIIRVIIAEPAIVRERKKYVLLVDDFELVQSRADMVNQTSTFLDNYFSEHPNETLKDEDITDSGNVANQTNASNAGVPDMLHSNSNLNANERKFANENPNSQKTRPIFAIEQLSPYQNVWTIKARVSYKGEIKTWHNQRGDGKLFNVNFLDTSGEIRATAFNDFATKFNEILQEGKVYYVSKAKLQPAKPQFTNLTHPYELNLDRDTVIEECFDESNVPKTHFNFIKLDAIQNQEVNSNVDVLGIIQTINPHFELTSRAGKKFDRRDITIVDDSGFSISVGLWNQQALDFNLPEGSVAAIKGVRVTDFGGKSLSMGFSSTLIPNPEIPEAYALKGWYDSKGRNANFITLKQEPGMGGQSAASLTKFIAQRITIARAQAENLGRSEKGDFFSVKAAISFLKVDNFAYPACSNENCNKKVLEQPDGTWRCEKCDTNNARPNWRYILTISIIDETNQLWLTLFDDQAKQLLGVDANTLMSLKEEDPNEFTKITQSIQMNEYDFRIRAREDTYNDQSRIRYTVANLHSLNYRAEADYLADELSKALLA
ScRPA S178D (phosphomimetic) (Saccharomyces cerevisiae), one chain, as listed by the source S178D, chain 1 of 3: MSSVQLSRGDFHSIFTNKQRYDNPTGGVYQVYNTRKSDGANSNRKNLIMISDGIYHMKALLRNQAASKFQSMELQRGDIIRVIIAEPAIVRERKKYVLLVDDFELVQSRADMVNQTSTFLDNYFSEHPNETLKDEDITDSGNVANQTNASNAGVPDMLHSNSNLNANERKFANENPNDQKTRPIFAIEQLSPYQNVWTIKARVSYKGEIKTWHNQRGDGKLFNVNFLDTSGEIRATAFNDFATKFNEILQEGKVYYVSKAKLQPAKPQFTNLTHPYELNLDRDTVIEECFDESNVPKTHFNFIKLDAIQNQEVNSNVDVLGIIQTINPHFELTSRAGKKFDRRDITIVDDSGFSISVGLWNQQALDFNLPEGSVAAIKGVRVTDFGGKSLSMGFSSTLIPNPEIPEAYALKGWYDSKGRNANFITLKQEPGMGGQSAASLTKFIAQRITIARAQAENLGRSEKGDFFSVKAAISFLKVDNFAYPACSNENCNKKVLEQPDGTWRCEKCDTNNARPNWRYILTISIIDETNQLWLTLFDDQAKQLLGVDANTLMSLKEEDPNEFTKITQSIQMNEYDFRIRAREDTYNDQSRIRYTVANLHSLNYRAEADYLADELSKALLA

pKd: −log10 of the molar value. The exact form of at least one protein or probe is not confirmed. For some of these results: At least one verdict was read from the data and is not stated in words by the source.

For data set [1], the system named is ScRPA S178D (phosphomimetic) (Saccharomyces cerevisiae). Briefly: FRET titration. Particulars: 10 nM DNA, quadratic fit, FRET: reaction buffer not given, recombinant protein, protein details: TEV-cleavable His6 on Rfa1, label: 5' Cy5, 3' Cy3, single-stranded DNA.
Data set [2] relates to ScRPA (Rfa1-Rfa2-Rfa3 heterotrimer, wild type) (Saccharomyces cerevisiae). Briefly: FRET titration. Particulars: substrate assigned from source data header; FRET: reaction buffer not given, 10 nM DNA; recombinant protein; protein details: TEV-cleavable His6 on Rfa1; label: Cy5/Cy3 at 1 and 11 (from name); single-stranded DNA.
The test system of data set [3] is RPA S178D-DBD-A-Cy3 + RPA S178D-DBD-D-Cy5 S178D,T211 S178D,W101. Briefly: stopped-flow FRET. Particulars: 40 nM each, FRET: reaction buffer not given, 10 nM DNA, recombinant protein, single-stranded DNA.
In data set [4] the test system is ScRPA S178D (phosphomimetic) (Saccharomyces cerevisiae). Briefly: MST. The following applies: apparent EC50, Hill slope 1.7 ± 0.1; room temperature, 20 min; recombinant protein; protein details: TEV-cleavable His6 on Rfa1; label: 5' Cy5; single-stranded DNA.
Data set [5] has the same test system. Briefly: cryo-EM. The following applies: dataset 2, merged into the Tri-C map; recombinant protein; protein details: TEV-cleavable His6 on Rfa1; single-stranded DNA.

In the case of “TTTTTTTTTTTTTTTTTTTTTTTTTTTTTT [dT30 (FRET)]”, the binding result in data set [1] is listed as “binds”. Take “TTTTTTTTTTTTTTTTTTTTTTTTTTTTTT [dT30(1-11)]”: in data set [2], the pKd was 7.76. For the sequence “TTTTTTTTTTTTTTTTTTTTTTTTTTTTTTTTTTTTTTTTTTTTT [dT45]”, in data set [3] (two RPA per DNA), the binding result is given as “binds”. Turning to “TTTTTTTTTTTTTTTTTTTTTTTTTTTTTTTTTTTTTTTTTTTTTTTTTTTTTTTTTTTT [dT60]”, the binding result in data set [3] was “binds”. Still for that read-out and setting: under “TTTTTTTTTTTTTTTTTTTTTTTTTTTTTTTTTTTTTTTTTTTTTTTTTTTTTTTTTTTTTTTTTTTTTT [dT70]” stands “binds”; under “TTTTTTTTTTTTTTTTTTTTTTTTTTTTTTTTTTTTTTTTTTTTTTTTTTTTTTTTTTTTTTTTTTTTTTTTTTTTTTT [dT79]”, “binds”.

For the sequence “TTTTTTTTTTTTTTTTTTTTTTTTTTTTTTTTTTTTTTTTTTTTTTTTTTTTTTTTTTTTTTTTTTTTTTTTTTTTTTTTTTTTTTTTTTTTTTTTT [dT97]”, the binding result in data set [3] (kobs,1 rises with length) is recorded as “binds”.

In the case of “TTTTTTTTTTTTTTTTTTTTTTTTTTTTTTTTTTTTTTTTTTTTTTTTTTTTTTTTTTTTTTTTTTTTTTTTTTTTTTTTTTTTTTTTTTTTTTTTTTTT [dT100 (Cy5)]”, the half-maximal binding in data set [4] was 80 nM. Regarding “TTTTTTTTTTTTTTTTTTTTTTTTTTTTTTTTTTTTTTTTTTTTTTTTTTTTTTTTTTTTTTTTTTTTTTTTTTTTTTTTTTTTTTTTTTTTTTTTTTTT [dT100 (cryo-EM, SEC-MALS)]”, the binding result in data set [5] is listed as “binds”. Consider “TTTTTTTTTTTTTTTTTTTTTTTTTTTTTTTTTTTTTTTTTTTTTTTTTTTTTTTTTTTTTTTTTTTTTTTTTTTTTTTTTTTTTTTTTTTTTTTTTTTTTTTTTTTTTTTTTTTTTTTTTTTTTTTTTTTTTTTTTTTT [dT140]”, for which, in data set [3] (one-step fit), the binding result was “binds”.
